No constants are given. Whether binding was seen depends on the method and setting. Binding can be weak; no strength is given. Sequences can lack the tags named with a protein.
What follows are substances tested against T1, GST-OGA (residues 371-440) (human) (UniProt O60502) (assay: pull-down; GST pull-down: GST-OGA bait on Glutathione Sepharose 4B, His6-tagged OGT or mutants as prey; all proteins 1 mg/ml; 25 mM Tris pH 8.0, 150 mM NaCl, 2 mM DTT, 0.05% NP40; 2 h at 4 °C; SDS-PAGE with Coomassie staining; both purified).
T1 sequence: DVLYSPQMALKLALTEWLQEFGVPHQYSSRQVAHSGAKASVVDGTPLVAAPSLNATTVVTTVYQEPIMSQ

The chains behind the UniProt entries cited, without tags or fusion partners. Where a name states a change or a piece, a line headed by the entry shows the natural chain unless it says otherwise.
UniProt O15294: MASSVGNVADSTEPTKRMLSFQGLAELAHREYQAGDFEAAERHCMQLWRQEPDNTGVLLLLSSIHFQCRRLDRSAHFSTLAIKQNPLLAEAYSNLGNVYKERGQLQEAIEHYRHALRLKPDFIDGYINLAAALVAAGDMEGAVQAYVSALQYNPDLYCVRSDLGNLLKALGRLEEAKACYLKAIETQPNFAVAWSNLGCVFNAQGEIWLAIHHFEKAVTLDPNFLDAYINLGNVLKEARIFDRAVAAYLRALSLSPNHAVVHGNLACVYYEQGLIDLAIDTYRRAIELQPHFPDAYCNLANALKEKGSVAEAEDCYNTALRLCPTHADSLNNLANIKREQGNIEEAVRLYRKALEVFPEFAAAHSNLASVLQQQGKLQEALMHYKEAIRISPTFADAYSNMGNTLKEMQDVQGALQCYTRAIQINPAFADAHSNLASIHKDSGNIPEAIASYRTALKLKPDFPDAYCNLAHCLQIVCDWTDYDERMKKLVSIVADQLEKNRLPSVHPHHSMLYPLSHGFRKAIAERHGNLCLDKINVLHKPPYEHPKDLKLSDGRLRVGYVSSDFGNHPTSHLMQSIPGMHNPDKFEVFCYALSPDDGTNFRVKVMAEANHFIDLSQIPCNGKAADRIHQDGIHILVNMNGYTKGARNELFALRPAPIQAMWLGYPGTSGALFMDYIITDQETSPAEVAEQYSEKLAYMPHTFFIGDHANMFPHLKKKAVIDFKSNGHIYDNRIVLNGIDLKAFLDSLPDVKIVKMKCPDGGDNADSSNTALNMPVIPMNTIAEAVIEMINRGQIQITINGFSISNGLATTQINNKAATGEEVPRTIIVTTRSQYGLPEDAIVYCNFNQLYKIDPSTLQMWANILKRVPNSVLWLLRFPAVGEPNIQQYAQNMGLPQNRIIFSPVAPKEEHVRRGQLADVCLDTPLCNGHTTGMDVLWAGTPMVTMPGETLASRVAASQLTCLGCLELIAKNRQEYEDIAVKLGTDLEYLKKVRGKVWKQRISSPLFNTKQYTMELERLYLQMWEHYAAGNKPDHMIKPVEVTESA

binding, binds:
human OGT mutated at N366 (TPR11), His6 (from UniProt O15294) (enzyme)
human OGT mutated at N332 (TPR10), His6 (from UniProt O15294) (enzyme)
human OGT mutated at N434 (TPR13), His6 (from UniProt O15294) (enzyme)
